Results as given in PMC4342582.
These are yes or no findings as the source states them, for the method shown. Binding seen in cells or lysates may run through a third protein. Some results given as binding are weak or reduced against the parent protein; the word gives no strength.

Chains of the proteins cited; added tags and fusions are not shown.
UniProt Q9NZI8: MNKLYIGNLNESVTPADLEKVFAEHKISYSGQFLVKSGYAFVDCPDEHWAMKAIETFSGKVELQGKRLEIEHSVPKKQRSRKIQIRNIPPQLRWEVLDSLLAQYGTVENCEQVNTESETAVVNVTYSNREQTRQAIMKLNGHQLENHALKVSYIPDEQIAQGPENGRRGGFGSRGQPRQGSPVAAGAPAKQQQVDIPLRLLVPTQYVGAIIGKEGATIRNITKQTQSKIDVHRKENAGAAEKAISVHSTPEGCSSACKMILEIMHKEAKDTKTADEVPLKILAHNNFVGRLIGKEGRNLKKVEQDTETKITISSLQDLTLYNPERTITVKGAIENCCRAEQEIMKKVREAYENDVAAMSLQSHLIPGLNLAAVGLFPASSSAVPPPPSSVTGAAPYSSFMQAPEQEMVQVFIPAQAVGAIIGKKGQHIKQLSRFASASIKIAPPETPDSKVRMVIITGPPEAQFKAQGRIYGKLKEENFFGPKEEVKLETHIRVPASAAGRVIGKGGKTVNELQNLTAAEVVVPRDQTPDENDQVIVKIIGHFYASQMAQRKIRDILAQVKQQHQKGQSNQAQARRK
UniProt P52732: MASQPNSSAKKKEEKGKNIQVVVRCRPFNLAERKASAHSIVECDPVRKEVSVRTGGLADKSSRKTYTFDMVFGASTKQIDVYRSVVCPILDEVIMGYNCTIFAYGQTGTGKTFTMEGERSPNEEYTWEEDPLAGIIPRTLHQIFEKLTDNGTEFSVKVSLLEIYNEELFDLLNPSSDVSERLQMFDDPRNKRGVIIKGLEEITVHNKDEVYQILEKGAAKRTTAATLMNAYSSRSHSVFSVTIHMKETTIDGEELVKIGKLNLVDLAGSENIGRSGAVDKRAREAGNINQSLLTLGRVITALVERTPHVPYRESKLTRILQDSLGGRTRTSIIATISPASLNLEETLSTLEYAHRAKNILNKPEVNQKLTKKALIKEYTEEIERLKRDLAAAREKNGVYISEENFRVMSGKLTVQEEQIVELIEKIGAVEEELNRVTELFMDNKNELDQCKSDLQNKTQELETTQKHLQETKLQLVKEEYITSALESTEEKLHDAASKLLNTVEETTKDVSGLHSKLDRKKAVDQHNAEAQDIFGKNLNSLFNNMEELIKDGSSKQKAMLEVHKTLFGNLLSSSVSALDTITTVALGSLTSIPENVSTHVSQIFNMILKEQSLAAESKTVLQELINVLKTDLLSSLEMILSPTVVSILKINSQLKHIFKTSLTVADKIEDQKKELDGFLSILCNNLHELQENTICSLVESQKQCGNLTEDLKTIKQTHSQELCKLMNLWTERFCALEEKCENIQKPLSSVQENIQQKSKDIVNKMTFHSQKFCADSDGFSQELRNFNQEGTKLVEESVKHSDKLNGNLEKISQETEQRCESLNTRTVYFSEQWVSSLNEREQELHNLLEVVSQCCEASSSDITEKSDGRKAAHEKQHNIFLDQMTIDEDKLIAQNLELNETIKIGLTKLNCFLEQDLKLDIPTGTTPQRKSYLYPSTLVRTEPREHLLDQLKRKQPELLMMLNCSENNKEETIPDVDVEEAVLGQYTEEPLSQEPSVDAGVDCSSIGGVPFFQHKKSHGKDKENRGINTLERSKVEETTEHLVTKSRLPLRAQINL

Biological target: MBP-ZBP1 full length (UniProt Q9NZI8)
Assay: pull-down; MBP-ZBP1 fusion proteins (0.1-0.5 µg) on amylose beads, incubated with cell extract on ice for 4 h; eluted with 20 mM maltose; western blot for KIF11; only the target purified

Substance: KIF11, endogenous (from UniProt P52732 1-1056)
- binding: binds
